Source: PMC12677912
These are yes or no findings as the source states them, for the method shown. In cells and extracts the contact can be indirect. Some results given as binding are weak or reduced against the parent protein; the word gives no strength. Where a sequence is shown, tags or fusion partners need not be part of it.

Target: T1, FLAG-POU3F2 (UniProt P20265)
T1 sequence: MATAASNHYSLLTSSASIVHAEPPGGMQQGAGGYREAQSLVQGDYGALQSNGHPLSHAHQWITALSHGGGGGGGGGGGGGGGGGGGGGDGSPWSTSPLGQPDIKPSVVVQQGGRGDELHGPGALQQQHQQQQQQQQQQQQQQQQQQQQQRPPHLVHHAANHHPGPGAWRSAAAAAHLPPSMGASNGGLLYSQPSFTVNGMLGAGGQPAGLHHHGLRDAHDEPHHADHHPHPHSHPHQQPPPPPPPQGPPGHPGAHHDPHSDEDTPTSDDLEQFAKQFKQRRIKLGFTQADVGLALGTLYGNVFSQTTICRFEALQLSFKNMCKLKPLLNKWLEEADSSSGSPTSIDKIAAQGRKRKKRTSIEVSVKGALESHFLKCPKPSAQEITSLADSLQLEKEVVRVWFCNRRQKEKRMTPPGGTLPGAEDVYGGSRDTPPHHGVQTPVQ
Experiment: co-IP; immunoprecipitation of POU3F2 in HEK293T cells overexpressing HA-ADNP, FLAG-POU3F2 or both, followed by western blot

B1: HA-ADNP (protein, UniProt Q9H2P0 1-1102)
chain: MFQLPVNNLGSLRKARKTVKKILSDIGLEYCKEHIEDFKQFEPNDFYLKNTTWEDVGLWDPSLTKNQDYRTKPFCCSACPFSSKFFSAYKSHFRNVHSEDFENRILLNCPYCTFNADKKTLETHIKIFHAPNASAPSSSLSTFKDKNKNDGLKPKQADSVEQAVYYCKKCTYRDPLYEIVRKHIYREHFQHVAAPYIAKAGEKSLNGAVPLGSNAREESSIHCKRCLFMPKSYEALVQHVIEDHERIGYQVTAMIGHTNVVVPRSKPLMLIAPKPQDKKSMGLPPRIGSLASGNVRSLPSQQMVNRLSIPKPNLNSTGVNMMSSVHLQQNNYGVKSVGQGYSVGQSMRLGLGGNAPVSIPQQSQSVKQLLPSGNGRSYGLGSEQRSQAPARYSLQSANASSLSSGQLKSPSLSQSQASRVLGQSSSKPAAAATGPPPGNTSSTQKWKICTICNELFPENVYSVHFEKEHKAEKVPAVANYIMKIHNFTSKCLYCNRYLPTDTLLNHMLIHGLSCPYCRSTFNDVEKMAAHMRMVHIDEEMGPKTDSTLSFDLTLQQGSHTNIHLLVTTYNLRDAPAESVAYHAQNNPPVPPKPQPKVQEKADIPVKSSPQAAVPYKKDVGKTLCPLCFSILKGPISDALAHHLRERHQVIQTVHPVEKKLTYKCIHCLGVYTSNMTASTITLHLVHCRGVGKTQNGQDKTNAPSRLNQSPSLAPVKRTYEQMEFPLLKKRKLDDDSDSPSFFEEKPEEPVVLALDPKGHEDDSYEARKSFLTKYFNKQPYPTRREIEKLAASLWLWKSDIASHFSNKRKKCVRDCEKYKPGVLLGFNMKELNKVKHEMDFDAEWLFENHDEKDSRVNASKTADKKLNLGKEDDSSSDSFENLEEESNESGSPFDPVFEVEPKISNDNPEEHVLKVIPEDASESEEKLDQKEDGSKYETIHLTEEPTKLMHNASDSEVDQDDVVEWKDGASPSESGPGSQQVSDFEDNTCEMKPGTWSDESSQSEDARSSKPAAKKKATMQGDREQLKWKNSSYGKVEGFWSKDQSQWKNASENDERLSNPQIEWQNSTIDSEDGEQFDNMTDGVAEPMHGSLAGVKLSSQQA
  binding: binds
